# Source: the supplement of paper PMC10849652
# Chains of the proteins cited; added tags and fusions are not shown. Lines headed by an entry give the natural chain unless they say otherwise; changes in a name come on top.
# UniProt P53677: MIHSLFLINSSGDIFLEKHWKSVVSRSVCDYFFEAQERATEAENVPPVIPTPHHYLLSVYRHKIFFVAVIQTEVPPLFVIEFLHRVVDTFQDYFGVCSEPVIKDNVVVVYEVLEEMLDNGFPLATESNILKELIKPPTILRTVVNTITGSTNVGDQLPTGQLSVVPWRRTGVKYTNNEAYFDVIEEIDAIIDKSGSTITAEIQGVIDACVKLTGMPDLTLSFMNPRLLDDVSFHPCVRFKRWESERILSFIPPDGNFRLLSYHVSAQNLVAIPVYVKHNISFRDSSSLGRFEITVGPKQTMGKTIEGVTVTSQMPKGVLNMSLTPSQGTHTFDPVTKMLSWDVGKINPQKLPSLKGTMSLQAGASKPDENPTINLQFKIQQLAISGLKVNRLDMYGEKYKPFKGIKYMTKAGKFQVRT
# UniProt O75342: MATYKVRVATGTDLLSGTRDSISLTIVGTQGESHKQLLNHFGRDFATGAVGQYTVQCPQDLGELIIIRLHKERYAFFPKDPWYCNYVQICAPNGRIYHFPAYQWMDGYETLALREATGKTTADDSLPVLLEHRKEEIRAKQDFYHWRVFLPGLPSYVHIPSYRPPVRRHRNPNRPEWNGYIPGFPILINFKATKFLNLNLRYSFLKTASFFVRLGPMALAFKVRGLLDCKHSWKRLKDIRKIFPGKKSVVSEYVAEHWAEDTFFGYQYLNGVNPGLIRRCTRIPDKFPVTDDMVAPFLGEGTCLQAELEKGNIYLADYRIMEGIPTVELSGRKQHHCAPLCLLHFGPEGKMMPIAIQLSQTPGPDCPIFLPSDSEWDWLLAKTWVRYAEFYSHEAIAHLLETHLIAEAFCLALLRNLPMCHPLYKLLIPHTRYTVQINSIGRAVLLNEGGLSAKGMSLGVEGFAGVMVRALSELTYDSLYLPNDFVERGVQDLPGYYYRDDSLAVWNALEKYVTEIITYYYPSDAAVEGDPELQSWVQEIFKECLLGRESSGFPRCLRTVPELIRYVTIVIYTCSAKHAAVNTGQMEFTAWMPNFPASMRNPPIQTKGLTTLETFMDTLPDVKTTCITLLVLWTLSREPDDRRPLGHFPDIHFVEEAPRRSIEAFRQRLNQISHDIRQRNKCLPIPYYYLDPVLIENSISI
# UniProt P30838: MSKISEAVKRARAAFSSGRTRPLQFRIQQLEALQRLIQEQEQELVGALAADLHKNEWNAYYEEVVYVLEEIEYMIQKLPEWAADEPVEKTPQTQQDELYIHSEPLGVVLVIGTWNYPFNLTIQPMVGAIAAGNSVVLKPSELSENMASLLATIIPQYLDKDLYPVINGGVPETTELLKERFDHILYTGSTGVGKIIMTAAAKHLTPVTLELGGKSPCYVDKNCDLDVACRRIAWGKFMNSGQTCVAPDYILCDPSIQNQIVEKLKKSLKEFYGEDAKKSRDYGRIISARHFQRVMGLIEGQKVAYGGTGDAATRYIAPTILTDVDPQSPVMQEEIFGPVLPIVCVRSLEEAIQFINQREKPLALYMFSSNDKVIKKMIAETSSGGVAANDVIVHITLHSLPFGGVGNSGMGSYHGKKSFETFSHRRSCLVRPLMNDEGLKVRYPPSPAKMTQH
# UniProt Q6DCA0: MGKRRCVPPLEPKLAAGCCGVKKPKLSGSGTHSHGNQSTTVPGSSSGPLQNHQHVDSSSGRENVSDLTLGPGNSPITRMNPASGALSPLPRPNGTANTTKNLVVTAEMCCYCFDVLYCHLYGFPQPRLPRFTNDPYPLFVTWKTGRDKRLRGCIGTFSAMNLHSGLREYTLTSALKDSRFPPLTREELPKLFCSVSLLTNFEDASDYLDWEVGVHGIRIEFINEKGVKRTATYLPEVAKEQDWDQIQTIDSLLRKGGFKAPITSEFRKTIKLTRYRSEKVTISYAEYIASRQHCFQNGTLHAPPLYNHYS
# UniProt Q9UNK9: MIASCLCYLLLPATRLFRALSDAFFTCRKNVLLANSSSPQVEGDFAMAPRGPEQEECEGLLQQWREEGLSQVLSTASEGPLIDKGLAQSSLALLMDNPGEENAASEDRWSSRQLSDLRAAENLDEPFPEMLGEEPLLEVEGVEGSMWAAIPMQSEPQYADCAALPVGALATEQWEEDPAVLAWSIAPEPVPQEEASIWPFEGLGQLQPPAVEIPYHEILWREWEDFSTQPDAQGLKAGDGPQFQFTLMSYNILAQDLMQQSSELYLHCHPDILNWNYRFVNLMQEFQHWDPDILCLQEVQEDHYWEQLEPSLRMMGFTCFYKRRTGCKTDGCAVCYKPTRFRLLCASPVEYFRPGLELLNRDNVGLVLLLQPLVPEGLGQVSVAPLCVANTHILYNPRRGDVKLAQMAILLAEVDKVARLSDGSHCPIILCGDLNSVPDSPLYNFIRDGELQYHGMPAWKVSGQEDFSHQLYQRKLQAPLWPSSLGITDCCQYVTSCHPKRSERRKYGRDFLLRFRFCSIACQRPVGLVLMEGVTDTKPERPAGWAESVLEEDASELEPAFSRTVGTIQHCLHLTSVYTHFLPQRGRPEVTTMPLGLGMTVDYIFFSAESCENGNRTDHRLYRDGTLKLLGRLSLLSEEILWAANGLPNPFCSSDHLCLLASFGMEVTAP
# UniProt A1A5B4: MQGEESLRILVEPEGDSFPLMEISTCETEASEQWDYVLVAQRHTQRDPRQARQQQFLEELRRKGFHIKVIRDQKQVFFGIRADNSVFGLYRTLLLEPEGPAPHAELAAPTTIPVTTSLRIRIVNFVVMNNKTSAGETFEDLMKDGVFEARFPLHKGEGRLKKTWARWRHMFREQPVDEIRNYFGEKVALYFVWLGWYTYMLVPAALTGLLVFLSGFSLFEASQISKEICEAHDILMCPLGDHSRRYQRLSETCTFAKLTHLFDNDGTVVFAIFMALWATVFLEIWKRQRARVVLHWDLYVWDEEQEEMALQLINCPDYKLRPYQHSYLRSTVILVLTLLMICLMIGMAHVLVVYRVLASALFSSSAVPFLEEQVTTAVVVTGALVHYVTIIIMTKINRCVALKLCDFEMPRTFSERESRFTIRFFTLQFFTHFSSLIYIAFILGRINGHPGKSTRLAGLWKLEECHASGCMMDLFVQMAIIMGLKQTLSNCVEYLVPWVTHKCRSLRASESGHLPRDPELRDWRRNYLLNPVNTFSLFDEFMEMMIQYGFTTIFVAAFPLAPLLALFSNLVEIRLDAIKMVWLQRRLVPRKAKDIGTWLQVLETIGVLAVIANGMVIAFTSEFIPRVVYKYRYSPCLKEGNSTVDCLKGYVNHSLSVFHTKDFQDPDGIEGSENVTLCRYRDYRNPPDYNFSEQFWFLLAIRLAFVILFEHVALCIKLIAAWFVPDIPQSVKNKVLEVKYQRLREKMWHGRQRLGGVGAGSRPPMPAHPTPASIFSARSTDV
# UniProt Q13686: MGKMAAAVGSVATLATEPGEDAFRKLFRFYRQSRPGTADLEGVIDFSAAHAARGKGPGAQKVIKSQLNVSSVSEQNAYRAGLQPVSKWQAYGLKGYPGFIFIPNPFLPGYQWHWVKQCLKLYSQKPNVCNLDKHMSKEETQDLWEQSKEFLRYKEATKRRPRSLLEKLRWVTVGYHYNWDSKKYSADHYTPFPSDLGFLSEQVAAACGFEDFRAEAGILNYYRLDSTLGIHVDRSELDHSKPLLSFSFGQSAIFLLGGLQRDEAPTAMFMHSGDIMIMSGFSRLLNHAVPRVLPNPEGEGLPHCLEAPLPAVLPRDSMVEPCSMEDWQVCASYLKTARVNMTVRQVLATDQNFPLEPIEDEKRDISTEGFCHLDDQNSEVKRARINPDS
# UniProt P59780: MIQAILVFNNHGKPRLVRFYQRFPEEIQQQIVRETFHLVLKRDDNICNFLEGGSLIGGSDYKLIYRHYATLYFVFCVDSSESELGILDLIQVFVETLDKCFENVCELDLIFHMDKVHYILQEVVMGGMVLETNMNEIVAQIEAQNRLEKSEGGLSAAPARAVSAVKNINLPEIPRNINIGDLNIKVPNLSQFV
# UniProt Q9Y303: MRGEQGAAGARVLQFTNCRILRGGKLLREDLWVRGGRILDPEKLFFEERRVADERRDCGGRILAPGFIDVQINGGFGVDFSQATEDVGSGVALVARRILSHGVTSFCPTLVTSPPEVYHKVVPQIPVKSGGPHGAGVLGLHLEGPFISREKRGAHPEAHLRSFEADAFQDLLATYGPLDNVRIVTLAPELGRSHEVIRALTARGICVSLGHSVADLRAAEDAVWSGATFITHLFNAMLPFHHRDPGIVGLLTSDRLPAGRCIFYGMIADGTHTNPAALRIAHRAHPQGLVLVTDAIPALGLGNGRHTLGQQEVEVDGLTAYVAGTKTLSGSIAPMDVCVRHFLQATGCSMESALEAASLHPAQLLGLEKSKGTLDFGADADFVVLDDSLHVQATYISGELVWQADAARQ
# UniProt Q9BT30: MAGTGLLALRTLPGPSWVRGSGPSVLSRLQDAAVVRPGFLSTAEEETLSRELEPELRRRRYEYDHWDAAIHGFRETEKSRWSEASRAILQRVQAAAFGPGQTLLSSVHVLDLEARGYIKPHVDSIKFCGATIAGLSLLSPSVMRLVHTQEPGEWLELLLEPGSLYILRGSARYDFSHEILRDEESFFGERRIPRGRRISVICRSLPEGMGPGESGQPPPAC
# UniProt Q7Z6G8: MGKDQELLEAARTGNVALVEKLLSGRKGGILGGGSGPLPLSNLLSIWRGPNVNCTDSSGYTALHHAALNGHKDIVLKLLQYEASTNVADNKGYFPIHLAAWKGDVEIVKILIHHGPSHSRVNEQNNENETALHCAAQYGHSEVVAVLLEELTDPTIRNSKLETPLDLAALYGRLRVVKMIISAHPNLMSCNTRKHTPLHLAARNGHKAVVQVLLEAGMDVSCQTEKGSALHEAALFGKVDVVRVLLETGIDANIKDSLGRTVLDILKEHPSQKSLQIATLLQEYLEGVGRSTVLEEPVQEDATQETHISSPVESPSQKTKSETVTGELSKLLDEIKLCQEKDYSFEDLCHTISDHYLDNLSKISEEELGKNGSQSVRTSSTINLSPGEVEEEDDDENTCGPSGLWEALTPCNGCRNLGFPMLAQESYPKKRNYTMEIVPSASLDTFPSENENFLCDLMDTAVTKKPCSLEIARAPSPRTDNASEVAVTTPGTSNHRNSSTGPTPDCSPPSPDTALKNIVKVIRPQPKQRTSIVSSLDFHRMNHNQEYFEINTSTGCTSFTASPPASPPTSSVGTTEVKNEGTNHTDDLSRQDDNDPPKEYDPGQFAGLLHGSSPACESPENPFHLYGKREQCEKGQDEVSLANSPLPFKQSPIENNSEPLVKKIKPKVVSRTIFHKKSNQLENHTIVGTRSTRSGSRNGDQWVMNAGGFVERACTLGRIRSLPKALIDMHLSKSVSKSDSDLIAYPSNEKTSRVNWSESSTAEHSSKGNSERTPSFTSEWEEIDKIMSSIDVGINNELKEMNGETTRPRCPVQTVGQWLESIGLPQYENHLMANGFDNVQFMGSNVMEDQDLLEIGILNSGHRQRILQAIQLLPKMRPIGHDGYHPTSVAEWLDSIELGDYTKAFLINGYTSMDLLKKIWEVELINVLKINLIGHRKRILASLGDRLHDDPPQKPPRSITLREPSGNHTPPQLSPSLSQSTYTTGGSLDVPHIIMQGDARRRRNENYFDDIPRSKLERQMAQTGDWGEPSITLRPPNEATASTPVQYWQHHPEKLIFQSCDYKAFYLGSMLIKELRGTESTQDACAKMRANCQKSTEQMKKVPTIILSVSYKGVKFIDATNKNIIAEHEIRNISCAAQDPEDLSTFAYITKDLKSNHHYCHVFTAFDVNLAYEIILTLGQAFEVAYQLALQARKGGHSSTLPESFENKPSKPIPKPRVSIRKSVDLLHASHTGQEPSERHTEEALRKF
# UniProt Q53RE8: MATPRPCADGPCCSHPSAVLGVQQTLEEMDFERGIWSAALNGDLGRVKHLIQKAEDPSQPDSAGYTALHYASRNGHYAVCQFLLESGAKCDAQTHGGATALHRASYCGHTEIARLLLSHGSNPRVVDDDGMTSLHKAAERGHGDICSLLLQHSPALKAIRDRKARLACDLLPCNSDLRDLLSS
# UniProt Q3KRA9: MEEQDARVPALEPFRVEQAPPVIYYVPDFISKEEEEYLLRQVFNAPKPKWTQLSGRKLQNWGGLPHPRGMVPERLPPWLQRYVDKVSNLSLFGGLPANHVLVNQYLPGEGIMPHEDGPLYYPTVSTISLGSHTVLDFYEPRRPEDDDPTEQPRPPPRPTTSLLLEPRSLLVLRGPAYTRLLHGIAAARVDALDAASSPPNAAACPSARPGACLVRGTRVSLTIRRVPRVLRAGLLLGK
# This is one part of the list.
# Key:
# Assay in all cases: log2 fold change, soluble protein after heating vs DMSO (PISA); higher = thermal stabilisation; K562 lysate, 10 uM; active = over 0.2 and 3.5 SD of the protein, either way, in both replicates (recomputed)
# ibrutinib = compound: C=CC(=O)N1CCC[C@@H](n2nc(-c3ccc(Oc4ccccc4)cc3)c3c(N)ncnc32)C1 [ibrutinib]
# How it was run: (§1)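 Log-two fold change in thermal stability relative to solvent controls is reported from duplicates. For each sample, crude K562 extract from dounce-homogenised pellets in PBS pH 7.4 with 1 mM MgCl2, at 1 mg/mL protein, was treated with 10 μM compound for 30 min. Aliquots heated for 3 min across 48°C-58°C were pooled, brought to 0.5% NP-40 at 4°C and cleared at 21,000xg for 90 min. The supernatant was quantified by TMTpro 16plex LC-MS/MS with channel sums equalised.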
# [1] = compound: CC(=O)c1cnc2ccc(-c3cc(Cl)c(O)c(Cl)c3)nc2c1N[C@H]1CC[C@H](CN(C)C)CC1
# How it was run: as §1
# ralimetinib = compound: CC(C)(C)Cn1c(N)nc2ccc(-c3[nH]c(C(C)(C)C)nc3-c3ccc(F)cc3)nc21 [ralimetinib]
# How it was run: as §1
# [2] = compound: CC(C)(O)CC(=O)NCCn1ccc2ncnc(Nc3ccc(Oc4cccc(C(F)(F)F)c4)c(Cl)c3)c21
# How it was run: as §1
# [3] = compound: CC(C)C1=C2N=C(C=C(N2N=C1)NCC3=CC=CC=C3)NCCCCCCN
# How it was run: as §1
# [4] = compound: CC1=C(C2=C(C=C1)C(=O)C3=CC=CC=C3N2CCCN)C
# How it was run: as §1
# [5] = compound: CC1=C(C=C(C=C1)NC(=O)C2=CC(=CC=C2)N(C)C)NC(=O)C3=CC=C(C=C3)O
# How it was run: as §1
# [6] = compound: CC1=CC=C(C=C1)SC2=C3C=C(SC3=CN=C2)C(=O)N
# How it was run: as §1
# [7] = compound: CC1=C(C(CC(=O)N1)C2=CC=C(C=C2)C(F)(F)F)C(=O)NC3=C(C=C4C(=C3)C=NN4)F
# How it was run: as §1
# [8] = compound: CC1=C(C=C(C=C1)NC(=O)C2=CC(=CC=C2)C(C)(C)C#N)NC3=CC4=C(C=C3)N=CN(C4=O)C
# How it was run: as §1
target,measurement,setting,value
AP3M2 (UniProt P53677),log2 fold change,ibrutinib,inactive: -0.058
same,log2 fold change,[1],inactive: 0.065
same,log2 fold change,ralimetinib,inactive: -0.036
same,log2 fold change,[2],inactive: -0.066
same,log2 fold change,[3],inactive: 0.037
same,log2 fold change,[4],inactive: -0.023
same,log2 fold change,[5],inactive: 0.109
same,log2 fold change,[6],inactive: -0.045
ALOX12B (UniProt O75342),log2 fold change,ibrutinib,inactive: -0.144
same,log2 fold change,ralimetinib,inactive: -0.127
same,log2 fold change,[2],inactive: 0.231
same,log2 fold change,[3],inactive: 0.026
same,log2 fold change,[7],inactive: 0.051
same,log2 fold change,[8],inactive: -0.043
same,log2 fold change,[5],inactive: -0.171
ANKRD44 isoform 2 (UniProt Q8N8A2),log2 fold change,ibrutinib,inactive: -0.131
same,log2 fold change,[1],inactive: 0.067
same,log2 fold change,[3],inactive: -0.026
same,log2 fold change,[7],inactive: 0.075
same,log2 fold change,[6],inactive: -0.029
ALDH3A1 (UniProt P30838),log2 fold change,[1],inactive: -0.197
same,log2 fold change,ralimetinib,inactive: -0.274
same,log2 fold change,[2],inactive: -0.259
same,log2 fold change,[3],inactive: 0.04
same,log2 fold change,[4],active: 1.23
same,log2 fold change,[8],inactive: 0.432
same,log2 fold change,[5],inactive: -0.001
same,log2 fold change,[6],inactive: -0.119
AMMECR1L (UniProt Q6DCA0),log2 fold change,ralimetinib,inactive: -0.009
same,log2 fold change,[2],inactive: 0.102
same,log2 fold change,[3],inactive: 0.08
same,log2 fold change,[4],inactive: -0.008
same,log2 fold change,[8],inactive: 0.14
same,log2 fold change,[5],inactive: 0.085
AP2M1 (UniProt C9JTK4),log2 fold change,ralimetinib,inactive: 0.209
same,log2 fold change,[2],inactive: -0.095
same,log2 fold change,[5],inactive: 0.027
ANGEL1 (UniProt Q9UNK9),log2 fold change,ralimetinib,inactive: 0.132
same,log2 fold change,[2],inactive: -0.297
same,log2 fold change,[7],inactive: -0.001
same,log2 fold change,[8],inactive: 0.011
same,log2 fold change,[5],inactive: -0.056
ANO9 (UniProt A1A5B4),log2 fold change,ralimetinib,inactive: -0.061
same,log2 fold change,[2],inactive: -0.151
same,log2 fold change,[4],inactive: -0.012
same,log2 fold change,[5],inactive: -0.274
ALKBH1 (UniProt Q13686),log2 fold change,ralimetinib,inactive: 0.095
same,log2 fold change,[2],inactive: -0.1
same,log2 fold change,[3],inactive: 0.008
same,log2 fold change,[7],inactive: -0.003
same,log2 fold change,[4],inactive: -0.102
same,log2 fold change,[5],inactive: 0.093
AP3S2 (UniProt P59780),log2 fold change,[1],inactive: -0.026
same,log2 fold change,[3],inactive: -0.022
same,log2 fold change,[7],inactive: -0.1
same,log2 fold change,[6],inactive: -0.028
AMDHD2 (UniProt Q9Y303),log2 fold change,[8],inactive: 0.014
ANXA6 (UniProt E5RK69),log2 fold change,[1],inactive: -0.102
same,log2 fold change,[3],inactive: -0.098
same,log2 fold change,[7],inactive: 0.121
same,log2 fold change,[4],inactive: -0.122
same,log2 fold change,[8],inactive: -0.01
same,log2 fold change,[6],inactive: -0.008
AP1G1 (UniProt H3BV30),log2 fold change,[1],inactive: -0.26
same,log2 fold change,[6],inactive: -0.429
ALKBH7 (UniProt Q9BT30),log2 fold change,ralimetinib,inactive: 0.116
same,log2 fold change,[2],inactive: 0.09
same,log2 fold change,[3],inactive: -0.085
same,log2 fold change,[7],inactive: 0.256
same,log2 fold change,[4],inactive: -0.012
same,log2 fold change,[8],inactive: 0.077
same,log2 fold change,[5],inactive: 0.019
ALPK1 (UniProt Q96QP1),log2 fold change,[3],inactive: -0.021
ANKS1B (UniProt Q7Z6G8),log2 fold change,[1],inactive: 0.026
same,log2 fold change,[6],inactive: -0.07
AKT1S1 (UniProt M0R2V8),log2 fold change,[1],inactive: -0.041
same,log2 fold change,[7],inactive: -0.106
same,log2 fold change,[6],inactive: 0.027
ANKRD39 (UniProt Q53RE8),log2 fold change,[7],inactive: -0.047
same,log2 fold change,[4],inactive: 0.026
same,log2 fold change,[8],inactive: 0.281
AMIGO2 (UniProt Q86SJ2),log2 fold change,[7],inactive: 0.023
AP2M1 (UniProt C9JPV8),log2 fold change,[1],inactive: 0.067
same,log2 fold change,[6],inactive: -0.032
ALKBH6 isoform 2 (UniProt Q3KRA9),log2 fold change,ralimetinib,inactive: 0.073
same,log2 fold change,[2],inactive: -0.033
same,log2 fold change,[3],inactive: -0.063
same,log2 fold change,[7],inactive: -0.036
same,log2 fold change,[4],inactive: 0.017
same,log2 fold change,[8],inactive: 0.098
same,log2 fold change,[5],inactive: -0.138
ANAPC15 isoform 2 (UniProt P60006),log2 fold change,[3],inactive: 0.064
same,log2 fold change,[7],inactive: 0.087
same,log2 fold change,[4],inactive: -0.164
same,log2 fold change,[8],inactive: 0.03

# Random excerpt: 3 entries already listed, in no set order.
target,measurement,setting,value
ANKRD39 (UniProt Q53RE8),log2 fold change,[4],inactive: 0.026
AP3M2 (UniProt P53677),log2 fold change,ibrutinib,inactive: -0.058
AMDHD2 (UniProt Q9Y303),log2 fold change,[8],inactive: 0.014
